## Primary screen of a compound library

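Viability assay of Plasmodium falciparum sporozoites; the read-out is not stated. The concentration is filed as 10 mM, unlikely as a test dose, so the dose is not known. Direction is inferred from retests: higher values go with lower viability. Strong results were mostly tested again. Size under these conditions: about 34,000 compounds, about 280 of them at 50% or above in at least one test.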

Each number is a percent effect as filed.
The record does not define 0% and 100%; most values in the screen are far below 50% and negative numbers occur (in some assays of this library far below -100).
The compounds are a random part of those screened.
Two or more numbers in one place are separate tests of the same structure; such repeats can differ widely.

| # | Compound | effect |
|---|---|---|
| 1 | `[H][C@]12CCC[C@@]1(COC)CN(C(=O)COCC)C2` | 6.421% |
| 2 | `Cl.FC(F)(F)c1nc(C2CCNCC2)no1` | 4.812% |
| 3 | `Cn1ccnc1CN1CC[C@H](O)[C@@H](n2ccc(=O)[nH]c2=O)CC1` | 0.1073% |
| 4 | `O=C(O)CCc1cc2n(n1)CCN(Cc1cnc(N3CCCC3)nc1)C2` | 2.368% |
| 5 | `CC(C)N1CCC(Cc2cc(-c3cccc(C(=O)O)c3)ncn2)CC1` | -0.7328% |
| 6 | `Cc1cccc(CN2CCc3onc(CN(C)C)c3C2)n1` | 2.426% |
| 7 | `OCCn1cc(CN2CCN(CCOCC(F)(F)F)CC2)cn1` | -2.924% |
| 8 | `Cc1nn(C)c(N(C)C)c1CNCCCNS(C)(=O)=O` | 13.32% |
| 9 | `CCc1nccn1C1CCCN(C(=O)c2cn3c(C)cccc3n2)C1` (stereo not shown) | -9.583% |
| 10 | `CCCc1noc(CCC(=O)N2CCCC2c2ccncc2)n1` (stereo not shown) | 1.479% |
| 11 | `O=C(O)C(F)(F)F.[H][C@@]12CCN(S(C)(=O)=O)C[C@]1(C(=O)NCc1ccccn1)CCO2` | 6.078% |
| 12 | `Cc1ncsc1CNc1cccc(OCCN2CCCC2)c1` | 10.83% |
| 13 | `CC1CCN(c2cncc(CCC3CCCN3)n2)CC1.Cl` (stereo not shown) | 9.743% |
| 14 | `NC(=O)C1CCN(Cc2cccc(NC(=O)c3ccsc3)c2)CC1` | -10.3% |
| 15 | `Cc1nc(COc2ccc(S(=O)(=O)N(C)C)cc2)sc1C` | -7.051% and 9.311% and -17.09% |
| 16 | `CN(C)c1ncc2c(n1)C1(CCN(CC3CC3)C1)COC2.O=C(O)C(F)(F)F` (stereo not shown) | -0.09355% |
| 17 | `Cc1nnsc1C(=O)N1CCC(c2nc3ccccc3[nH]2)CC1` | -7.071% and -14.3% |
| 18 | `Clc1ccccc1CCN1CCN(c2ccc3nncn3n2)CC1` | 5.08% |
| 19 | `CN1CCCC(c2cncc(C(=O)NCc3ccccc3Cl)n2)C1.O=CO` (stereo not shown) | -1.374% |
| 20 | `CS(=O)(=O)c1snnc1C1CCN(Cc2cccc(O)c2)CC1` | 8.128% |
| 21 | `Cc1cc(NCCCC(F)(F)F)n2nc(C)cc2n1` | -14.62% |
| 22 | `O=C(O)C(F)(F)F.[H][C@@]12C[C@H](C(=O)N3CCCCO3)CN(Cc3ccoc3)[C@]1([H])CCO2` | -6.959% |
| 23 | `CCCN(CCC)CCNc1c(-c2ccccc2)c(=O)c1=O` | -4.029% |
| 24 | `O=C(Cc1cnccn1)N1CCC(c2nccn2CC2CC2)CC1` | -3.421% |
| 25 | `CCOc1ccccc1CN(CC)Cc1ccc(S(=O)(=O)NC)cc1` | 4.71% |
| 26 | `CNc1cc(C2CCCN2C(=O)c2ccc(=O)[nH]n2)ccn1.O=CO` (stereo not shown) | 0.2498% |
| 27 | `Nc1cc(CCC2CN(Cc3cccc(C(=O)O)c3)CCO2)ccn1` (stereo not shown) | 9.707% |
| 28 | `CCn1nc(C)c2ccn(CC(=O)NC3CCCC3)c(=O)c21` | -9.497% |
| 29 | `Cc1cc(N(C)C)nc(C2COCCN2Cc2cscn2)n1` (stereo not shown) | 9.385% |
| 30 | `Cc1ccccc1CN1CCN(CC(=O)Nc2cccnc2)CC1` | 9.942% |
| 31 | `Cc1ccc(NC2CCN(C(=O)c3cccc4[nH]ncc34)CC2)nn1` | -10.48% |
| 32 | `Cc1cccc(CC(=O)N2CCN(c3nccn3C)CC2)c1.Cl` | 11.19% |
| 33 | `CC(=O)N1CC(=O)N(c2ccccc2)CC12CCN(Cc1nccs1)C2.O=C(O)C(F)(F)F` (stereo not shown) | 3.355% |
| 34 | `CCc1noc(CN2CCN(C(=O)N(C)C)CC2)n1` | 3.536% |
| 35 | `Cc1nc(C)n(CC2CCCN(CC(=O)Nc3c(C)n[nH]c3C)C2)n1` (stereo not shown) | -2.308% |
| 36 | `Cc1ccc2c(c1)C(=O)NCC1(CCN(C(=O)c3scnc3C)CC1)O2` | -3.468% |
| 37 | `COc1cccc2ccc(N3CCC(O)(c4ccc(C)cn4)CC3)nc12` | 6.983% |
| 38 | `c1ccc(CO[C@H]2CN(c3ncccn3)C[C@@]23CCCO3)cc1` | 7.166% |
| 39 | `CC(=O)N1CCC2(CC1)CN(C(=O)[C@@H]1CSCN1)c1ccc(Cl)cc12.O=C(O)C(F)(F)F` | 10.36% |
| 40 | `O=C(c1ccccc1N1CCOCC1)N1CCCC(n2cccn2)C1` (stereo not shown) | -1.44% |
| 41 | `Cc1cc(C)n(CC2CCCCN2C(=O)c2cnn(C)c2)n1` (stereo not shown) | -10.29% |
| 42 | `Cc1cc(-c2cnc(N3CCCC(C)C3)nc2-c2cccnc2C)on1.Cl` (stereo not shown) | 6.517% |
| 43 | `Cc1ccc2cc(CNCCCN3CCOCC3)c(=O)[nH]c2c1C` | 6.739% |
| 44 | `[H][C@]12CCN(C(=O)c3cnccn3)[C@@]1([H])CC[C@H](COCC)O2` | 7.105% |
| 45 | `N#CCc1ccc(NC(=O)CNc2ccc(Br)cc2F)cc1` | -17.16% |
| 46 | `O=C(c1cnccn1)N1CCC2(CCN(Cc3ccsc3)C2)CC1` | 20.4% |
| 47 | `O=C(O)C(F)(F)F.O=C(c1ccco1)N1CCOCC2(C1)CN(c1cccnc1)C(=O)CO2` (stereo not shown) | -35.47% and 9.106% and -28.48% |
| 48 | `[H][C@@]12CCCN1C[C@H](CCSC)N(Cc1cn(CC)nc1C)C2` | -13.96% |
| 49 | `Cc1ncsc1C(=O)NC1CCN(CCC(N)=O)CC1` | -1.635% |
| 50 | `Cc1ccc(C2CSCCN2C(=O)C2=CCCC2)o1` (stereo not shown) | 2.307% |
| 51 | `CSCCCn1ccnc1-c1cccc(C#N)c1` | 17.2% |
| 52 | `Cc1cc(C)n(CC2CCCN2CC(=O)N(C)Cc2ccc(C)o2)n1` (stereo not shown) | 13.26% |
| 53 | `CC(C)c1cc(NC(=O)CN2CCC(N3CCCCC3)CC2)on1` | -6.044% |
| 54 | `O=S(=O)(CC1CCCCO1)Nc1c(F)cccc1-n1cccn1` (stereo not shown) | -18.64% |
| 55 | `CN(C)CC1CN(c2cnc3ccccc3n2)CCO1` (stereo not shown) | 1.562% |
| 56 | `O=C(c1cn(-c2cccc(Cl)c2F)nn1)N1CCCSCC1` | -42.82% and -45.17% |
| 57 | `O=C(NCCn1nc2ccccn2c1=O)c1sccc1-c1ccccc1` | 1.519% |
| 58 | `Cc1ccc2oc(CNC(C)c3nnc4n3CCCC4)cc2c1` (stereo not shown) | 2.029% |
| 59 | `CCCC(=O)N(C)CC(=O)Nc1ccc(Br)cn1` | 9.924% |
| 60 | `CCc1nnnn1Cc1csc(N(C)C(C)=O)n1` | 1.752% and -5.014% |
| 61 | `Cc1ccc(-c2cc(C(=O)N3CCCC3c3cccnc3)[nH]n2)o1` (stereo not shown) | -1.654% |
| 62 | `CN(CCc1ccccc1)c1cnn(CC2COCCO2)c(=O)c1` (stereo not shown) | -8.045% |
| 63 | `COc1ccc(C)cc1C(=O)N1CCCC(n2cncn2)C1` (stereo not shown) | 0.6077% |
| 64 | `Cc1nc(NCCN2CCCC2=O)cc(C2CN(C(C)C)CCO2)n1` (stereo not shown) | 8.941% |
| 65 | `Cc1nc2c(c(=O)n1C)CCN(C(=O)CCc1ccccn1)CC2` | -1.065% |
| 66 | `O=C(O)C(F)(F)F.[H][C@]12CCC(=O)N(c3cccnc3)[C@@]1([H])CCN2C(=O)Cc1cccs1` | 5.762% |
| 67 | `Cn1nnc2c1CCN(CC1CC1)C2COCC1CC1.O=C(O)C(F)(F)F` (stereo not shown) | 8.941% |
| 68 | `CN(C)C(=O)c1cccc(CCNc2ccccc2S(C)(=O)=O)c1` | -19.96% |
| 69 | `[H][C@]12CN(Cc3nc(C)cs3)C[C@@]1([H])OCCN(S(C)(=O)=O)C2` | -2.641% |
| 70 | `O=C([C@H]1CCCO1)N1CCC2(CC1)Cc1ccccc1CNC2=O` | 5.877% |
| 71 | `COCC(=O)N1CCC2(CC1)C(=O)N(Cc1cccnc1)CCN2C.O=C(O)C(F)(F)F.O=C(O)C(F)(F)F` | 5.342% |
| 72 | `CCn1ccnc1CN1CCCN(C(=O)COC2CCCC2)CC1` | 8.681% |
| 73 | `CN(C)c1ccc(NC(=O)N2CCCCC2c2ncc[nH]2)cn1` (stereo not shown) | 59.6% and -5.605% and 5.019% |
| 74 | `Cc1ccc2c(ccn2CCC(=O)N2CCC(C(N)=O)CC2)c1` | -8.991% |
| 75 | `CN1CCCN(C(=O)NCCOc2ccc3c(c2)OCO3)CC1` | -8.285% |
| 76 | `O=c1c(NCCNCCO)c(N2CCN(c3ccccc3)CC2)c1=O` | 3.179% |
| 77 | `COc1cc(C)sc1C(=O)N1CCCC(n2nc(C)nc2C)C1` (stereo not shown) | -0.03286% |
| 78 | `Cc1nc(C2CCCN(C(=O)c3cnn(C4CCCCC4)c3)C2)no1` (stereo not shown) | -5.267% |
| 79 | `O=C(Cc1cccnc1)N1CCCC(n2cncn2)C1` (stereo not shown) | 0.8056% |

6 of the entries, repeated:

* Cc1nnsc1C(=O)N1CCC(c2nc3ccccc3[nH]2)CC1 : -7.071% and -14.3%
* CC(=O)N1CCC2(CC1)CN(C(=O)[C@@H]1CSCN1)c1ccc(Cl)cc12.O=C(O)C(F)(F)F : 10.36%
* CCCN(CCC)CCNc1c(-c2ccccc2)c(=O)c1=O : -4.029%
* Cc1nn(C)c(N(C)C)c1CNCCCNS(C)(=O)=O : 13.32%
* CCc1nnnn1Cc1csc(N(C)C(C)=O)n1 : 1.752% and -5.014%
* O=C(O)C(F)(F)F.O=C(c1ccco1)N1CCOCC2(C1)CN(c1cccnc1)C(=O)CO2 (stereo not shown) : -35.47% and 9.106% and -28.48%

Source: ChEMBL document CHEMBL3988442, “University of Dundee, Small-Polar-MMV Screening Library” (2021).